From the supplement of paper PMC12823440, “Inhibitors supercharge kinase turnover through native proteolytic circuits” (Nature, 2025)
This is one part of the list. Hit calls seldom repeat between salt and free forms of one compound.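 Kinases were expressed as nanoluciferase fusions in K562 cells and luminescence was read every 4 h between 2 and 18 h as percent of control, DMSO set to 100% and a positive control to 0%. A time point counts as decreased when the signal drops significantly (2 sigma). The hit call is the authors' own, does not follow from the count of time points alone, and its rule is not shown.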

By UniProt entry, the sequences of proteins in these tests, tags left out. Where a name states a change or a piece, a line headed by the entry shows the natural chain unless it says otherwise.
UniProt Q15208: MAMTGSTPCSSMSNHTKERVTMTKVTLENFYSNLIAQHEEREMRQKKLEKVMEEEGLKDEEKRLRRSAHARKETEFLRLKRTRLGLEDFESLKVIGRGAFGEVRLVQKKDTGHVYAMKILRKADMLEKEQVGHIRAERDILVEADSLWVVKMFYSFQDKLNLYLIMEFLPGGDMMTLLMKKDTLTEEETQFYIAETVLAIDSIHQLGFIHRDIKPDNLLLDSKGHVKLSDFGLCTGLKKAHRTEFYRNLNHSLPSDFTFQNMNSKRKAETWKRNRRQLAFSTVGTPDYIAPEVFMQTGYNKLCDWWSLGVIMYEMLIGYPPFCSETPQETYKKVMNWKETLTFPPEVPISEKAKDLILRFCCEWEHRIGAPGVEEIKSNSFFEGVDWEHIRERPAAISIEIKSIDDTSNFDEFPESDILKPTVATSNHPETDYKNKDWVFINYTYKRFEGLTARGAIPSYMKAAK
UniProt Q6PHR2: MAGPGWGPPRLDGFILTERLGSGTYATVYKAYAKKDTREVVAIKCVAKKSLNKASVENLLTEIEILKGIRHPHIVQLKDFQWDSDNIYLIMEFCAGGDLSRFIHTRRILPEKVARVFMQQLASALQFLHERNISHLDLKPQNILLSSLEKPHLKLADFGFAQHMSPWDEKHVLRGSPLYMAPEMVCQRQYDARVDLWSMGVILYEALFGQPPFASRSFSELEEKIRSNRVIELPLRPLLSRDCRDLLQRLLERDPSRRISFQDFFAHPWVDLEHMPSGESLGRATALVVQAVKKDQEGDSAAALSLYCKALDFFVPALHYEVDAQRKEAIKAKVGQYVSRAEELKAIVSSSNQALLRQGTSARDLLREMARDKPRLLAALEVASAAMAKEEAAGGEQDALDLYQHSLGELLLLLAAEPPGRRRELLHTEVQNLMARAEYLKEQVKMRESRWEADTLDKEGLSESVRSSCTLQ
UniProt P07947, whole entry, looked up: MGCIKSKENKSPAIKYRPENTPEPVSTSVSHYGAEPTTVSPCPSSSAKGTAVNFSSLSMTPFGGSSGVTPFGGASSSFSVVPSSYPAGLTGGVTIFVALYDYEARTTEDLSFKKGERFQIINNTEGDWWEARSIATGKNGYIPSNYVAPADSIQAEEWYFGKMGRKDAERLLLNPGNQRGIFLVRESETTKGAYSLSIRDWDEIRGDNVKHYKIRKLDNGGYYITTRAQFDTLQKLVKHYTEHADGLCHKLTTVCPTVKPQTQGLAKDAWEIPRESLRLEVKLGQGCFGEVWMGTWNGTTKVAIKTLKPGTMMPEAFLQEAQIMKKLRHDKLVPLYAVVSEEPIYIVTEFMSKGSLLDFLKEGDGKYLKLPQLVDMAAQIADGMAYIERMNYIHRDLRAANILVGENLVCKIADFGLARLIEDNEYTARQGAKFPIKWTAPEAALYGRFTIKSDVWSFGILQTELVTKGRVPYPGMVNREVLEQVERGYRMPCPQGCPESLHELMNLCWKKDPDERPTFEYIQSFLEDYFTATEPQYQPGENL
UniProt P31749: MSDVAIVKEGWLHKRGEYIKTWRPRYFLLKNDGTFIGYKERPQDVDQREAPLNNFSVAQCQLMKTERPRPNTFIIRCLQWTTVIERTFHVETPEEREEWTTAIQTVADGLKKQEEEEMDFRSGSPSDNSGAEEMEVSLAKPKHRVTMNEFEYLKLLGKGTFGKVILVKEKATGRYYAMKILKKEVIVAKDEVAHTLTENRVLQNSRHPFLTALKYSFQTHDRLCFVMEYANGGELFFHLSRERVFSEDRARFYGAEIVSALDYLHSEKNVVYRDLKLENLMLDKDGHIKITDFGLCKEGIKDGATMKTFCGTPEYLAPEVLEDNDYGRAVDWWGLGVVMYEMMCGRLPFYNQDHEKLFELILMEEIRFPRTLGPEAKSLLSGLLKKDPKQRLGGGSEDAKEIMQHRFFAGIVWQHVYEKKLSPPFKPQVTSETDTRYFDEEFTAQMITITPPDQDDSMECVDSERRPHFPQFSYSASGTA
UniProt Q9UM73: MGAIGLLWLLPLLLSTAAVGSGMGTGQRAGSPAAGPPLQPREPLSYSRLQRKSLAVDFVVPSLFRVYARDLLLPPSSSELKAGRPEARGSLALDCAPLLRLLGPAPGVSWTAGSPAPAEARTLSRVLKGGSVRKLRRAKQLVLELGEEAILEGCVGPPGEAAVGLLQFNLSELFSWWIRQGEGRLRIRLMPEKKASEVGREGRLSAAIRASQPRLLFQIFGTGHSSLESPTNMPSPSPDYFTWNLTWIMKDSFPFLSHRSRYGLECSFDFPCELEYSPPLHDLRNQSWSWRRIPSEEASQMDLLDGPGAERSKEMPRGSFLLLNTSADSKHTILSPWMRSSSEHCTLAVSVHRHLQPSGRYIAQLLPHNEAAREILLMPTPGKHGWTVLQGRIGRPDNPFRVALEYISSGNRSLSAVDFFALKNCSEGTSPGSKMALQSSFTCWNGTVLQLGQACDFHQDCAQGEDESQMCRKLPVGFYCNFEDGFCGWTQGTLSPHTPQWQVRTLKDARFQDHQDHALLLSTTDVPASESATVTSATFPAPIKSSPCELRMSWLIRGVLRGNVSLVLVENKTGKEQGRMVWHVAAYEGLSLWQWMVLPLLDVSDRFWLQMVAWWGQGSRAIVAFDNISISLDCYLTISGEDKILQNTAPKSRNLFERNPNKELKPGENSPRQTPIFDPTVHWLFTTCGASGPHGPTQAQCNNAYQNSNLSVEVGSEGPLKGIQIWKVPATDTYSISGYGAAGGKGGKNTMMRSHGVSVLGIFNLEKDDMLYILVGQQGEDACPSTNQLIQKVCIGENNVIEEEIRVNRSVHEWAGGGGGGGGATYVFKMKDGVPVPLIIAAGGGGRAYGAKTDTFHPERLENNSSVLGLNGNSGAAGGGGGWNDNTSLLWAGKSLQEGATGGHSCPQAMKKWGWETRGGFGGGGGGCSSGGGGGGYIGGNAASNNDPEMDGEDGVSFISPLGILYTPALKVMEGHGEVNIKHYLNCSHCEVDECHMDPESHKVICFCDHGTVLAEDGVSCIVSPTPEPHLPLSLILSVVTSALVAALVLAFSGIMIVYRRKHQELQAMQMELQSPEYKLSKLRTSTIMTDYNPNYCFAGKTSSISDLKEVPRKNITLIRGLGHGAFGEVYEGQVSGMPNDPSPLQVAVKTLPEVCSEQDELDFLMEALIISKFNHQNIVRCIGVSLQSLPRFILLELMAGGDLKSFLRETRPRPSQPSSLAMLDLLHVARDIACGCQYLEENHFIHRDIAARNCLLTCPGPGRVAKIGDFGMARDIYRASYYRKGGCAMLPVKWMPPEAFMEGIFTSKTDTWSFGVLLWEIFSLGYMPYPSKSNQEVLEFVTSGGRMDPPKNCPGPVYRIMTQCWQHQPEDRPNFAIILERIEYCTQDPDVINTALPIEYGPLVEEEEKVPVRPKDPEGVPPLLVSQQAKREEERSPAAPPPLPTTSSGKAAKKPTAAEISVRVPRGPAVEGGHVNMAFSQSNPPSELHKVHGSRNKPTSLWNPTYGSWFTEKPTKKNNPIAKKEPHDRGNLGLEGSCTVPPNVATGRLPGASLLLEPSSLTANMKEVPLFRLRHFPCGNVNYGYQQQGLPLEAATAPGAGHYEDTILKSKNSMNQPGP
UniProt P10398: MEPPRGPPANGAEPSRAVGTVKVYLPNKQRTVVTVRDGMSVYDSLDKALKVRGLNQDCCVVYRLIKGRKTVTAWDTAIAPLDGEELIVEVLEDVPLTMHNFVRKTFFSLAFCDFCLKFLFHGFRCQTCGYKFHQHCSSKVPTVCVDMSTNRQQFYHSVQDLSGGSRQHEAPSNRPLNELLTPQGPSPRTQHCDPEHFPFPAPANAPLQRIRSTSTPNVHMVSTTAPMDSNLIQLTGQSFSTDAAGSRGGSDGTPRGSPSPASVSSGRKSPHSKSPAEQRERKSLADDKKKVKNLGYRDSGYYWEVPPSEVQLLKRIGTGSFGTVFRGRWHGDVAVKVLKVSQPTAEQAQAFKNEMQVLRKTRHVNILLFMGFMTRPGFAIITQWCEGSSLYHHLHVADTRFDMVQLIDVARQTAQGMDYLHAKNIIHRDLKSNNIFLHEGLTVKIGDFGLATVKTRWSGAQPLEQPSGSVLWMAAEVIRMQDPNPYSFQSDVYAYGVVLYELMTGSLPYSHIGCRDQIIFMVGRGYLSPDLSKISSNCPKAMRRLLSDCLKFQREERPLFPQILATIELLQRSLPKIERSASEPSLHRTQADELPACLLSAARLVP
UniProt O14965: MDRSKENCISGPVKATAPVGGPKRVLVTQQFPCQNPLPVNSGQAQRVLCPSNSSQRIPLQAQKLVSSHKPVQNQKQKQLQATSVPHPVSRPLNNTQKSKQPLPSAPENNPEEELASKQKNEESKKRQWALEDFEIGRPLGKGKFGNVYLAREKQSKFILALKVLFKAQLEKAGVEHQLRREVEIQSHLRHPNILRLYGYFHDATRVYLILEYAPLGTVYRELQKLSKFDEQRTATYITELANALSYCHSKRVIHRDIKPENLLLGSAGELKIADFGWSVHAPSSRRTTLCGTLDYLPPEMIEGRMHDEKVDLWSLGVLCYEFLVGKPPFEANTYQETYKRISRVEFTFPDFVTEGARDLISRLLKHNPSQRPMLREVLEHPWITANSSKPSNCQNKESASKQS
UniProt Q96GD4, whole entry: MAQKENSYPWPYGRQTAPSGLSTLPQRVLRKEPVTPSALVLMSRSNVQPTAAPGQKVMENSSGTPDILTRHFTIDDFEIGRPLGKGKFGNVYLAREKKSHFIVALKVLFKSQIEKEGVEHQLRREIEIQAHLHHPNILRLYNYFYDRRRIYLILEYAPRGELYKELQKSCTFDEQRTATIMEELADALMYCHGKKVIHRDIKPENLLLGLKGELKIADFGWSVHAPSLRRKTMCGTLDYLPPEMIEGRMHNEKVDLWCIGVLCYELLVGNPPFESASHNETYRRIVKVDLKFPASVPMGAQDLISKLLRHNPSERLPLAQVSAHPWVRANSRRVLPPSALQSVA
UniProt Q9UQB9: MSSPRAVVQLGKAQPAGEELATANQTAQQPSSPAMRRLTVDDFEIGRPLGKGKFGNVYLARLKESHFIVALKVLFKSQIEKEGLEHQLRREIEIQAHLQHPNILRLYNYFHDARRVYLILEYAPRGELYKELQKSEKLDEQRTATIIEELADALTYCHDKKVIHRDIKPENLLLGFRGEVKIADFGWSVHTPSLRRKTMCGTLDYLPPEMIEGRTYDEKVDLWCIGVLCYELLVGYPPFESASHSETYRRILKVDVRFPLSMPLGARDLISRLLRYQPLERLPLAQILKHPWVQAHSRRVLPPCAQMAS
UniProt P51813: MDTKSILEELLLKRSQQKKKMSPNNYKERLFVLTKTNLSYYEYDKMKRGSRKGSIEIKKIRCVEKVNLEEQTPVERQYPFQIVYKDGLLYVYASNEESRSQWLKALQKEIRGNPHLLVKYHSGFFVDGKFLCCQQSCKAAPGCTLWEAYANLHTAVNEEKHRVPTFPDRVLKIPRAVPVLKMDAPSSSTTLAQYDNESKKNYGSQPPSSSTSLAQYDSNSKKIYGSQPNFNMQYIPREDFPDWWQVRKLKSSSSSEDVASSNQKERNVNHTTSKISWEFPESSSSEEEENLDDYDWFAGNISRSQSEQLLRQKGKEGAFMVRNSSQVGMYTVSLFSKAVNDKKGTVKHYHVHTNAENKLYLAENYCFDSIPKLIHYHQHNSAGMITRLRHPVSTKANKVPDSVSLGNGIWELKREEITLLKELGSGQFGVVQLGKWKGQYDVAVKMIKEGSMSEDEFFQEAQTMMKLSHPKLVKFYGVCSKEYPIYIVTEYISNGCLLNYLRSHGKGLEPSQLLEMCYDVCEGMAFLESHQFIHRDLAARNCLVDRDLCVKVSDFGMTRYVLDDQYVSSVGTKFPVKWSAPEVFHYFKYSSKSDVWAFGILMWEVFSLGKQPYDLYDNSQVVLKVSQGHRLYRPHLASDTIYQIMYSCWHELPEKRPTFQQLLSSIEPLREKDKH
UniProt Q06187: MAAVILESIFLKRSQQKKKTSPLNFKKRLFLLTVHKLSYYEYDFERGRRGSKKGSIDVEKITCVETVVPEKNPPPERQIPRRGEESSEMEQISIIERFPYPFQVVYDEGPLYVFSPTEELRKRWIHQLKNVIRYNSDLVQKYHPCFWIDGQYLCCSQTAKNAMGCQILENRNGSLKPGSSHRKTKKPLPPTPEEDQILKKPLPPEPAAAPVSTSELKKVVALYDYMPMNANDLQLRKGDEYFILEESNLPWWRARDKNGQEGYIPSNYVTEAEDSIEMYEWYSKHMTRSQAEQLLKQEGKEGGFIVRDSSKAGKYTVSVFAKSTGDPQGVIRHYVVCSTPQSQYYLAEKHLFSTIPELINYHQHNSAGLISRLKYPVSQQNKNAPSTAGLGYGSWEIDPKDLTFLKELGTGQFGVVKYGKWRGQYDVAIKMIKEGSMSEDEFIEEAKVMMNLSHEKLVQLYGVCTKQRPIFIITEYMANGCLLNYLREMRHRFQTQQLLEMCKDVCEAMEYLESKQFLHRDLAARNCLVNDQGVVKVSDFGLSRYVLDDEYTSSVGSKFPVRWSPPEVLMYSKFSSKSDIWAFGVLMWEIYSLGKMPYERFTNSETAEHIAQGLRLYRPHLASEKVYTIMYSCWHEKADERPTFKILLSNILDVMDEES

Experiments:
Details in all cases: K562; 2-18 h
[1] = target: STK38 (UniProt Q15208); test: kinase-Nluc reporter destabilization hit call (1 = scored as downregulated) (binary); higher = compound decreases kinase abundance
[2] = target: SYK (UniProt P43405); test: as above
[3] = target: TEC (UniProt P42680); test: as above
[4] = target: TYK2 (UniProt P29597); test: as above
[5] = target: ULK3 (UniProt Q6PHR2); test: as above
[6] = target: YES1 (UniProt P07947); test: as above
[7] = target: ZAK (UniProt Q9NYL2); test: as above
[8] = target: ZAP70 (UniProt P43403); test: as above
[9] = target: ABL1 (UniProt P00519); test: number of time points (of 5) at which kinase-Nluc abundance scored as decreased, DMSO-normalised (count); higher = more persistent destabilization
[10] = target: AKT1 (UniProt P31749); test: as above
[11] = target: ALK (UniProt Q9UM73); test: as above
[12] = target: ARAF (UniProt P10398); test: as above
[13] = target: AURKA (UniProt O14965); test: as above
[14] = target: AURKB (UniProt Q96GD4); test: as above
[15] = target: AURKC (UniProt Q9UQB9); test: as above
[16] = target: BLK (UniProt P51451); test: as above
[17] = target: BMX (UniProt P51813); test: as above
[18] = target: BRAF (UniProt P15056); test: as above
[19] = system: BRAF_V600E; test: as above
[20] = target: BTK (UniProt Q06187); test: as above

| Compound | kinase-Nluc reporter destabilization hit call [1] | kinase-Nluc reporter destabilization hit call [2] | kinase-Nluc reporter destabilization hit call [3] | kinase-Nluc reporter destabilization hit call [4] | kinase-Nluc reporter destabilization hit call [5] | kinase-Nluc reporter destabilization hit call [6] | kinase-Nluc reporter destabilization hit call [7] | kinase-Nluc reporter destabilization hit call [8] | number of time points [9] | number of time points [10] | number of time points [11] | number of time points [12] | number of time points [13] | number of time points [14] | number of time points [15] | number of time points [16] | number of time points [17] | number of time points [18] | number of time points [19] | number of time points [20] |
| --- | --- | --- | --- | --- | --- | --- | --- | --- | --- | --- | --- | --- | --- | --- | --- | --- | --- | --- | --- | --- |
| CNC(=O)c1cc(Oc2ccc3nc(N[C@@H]4CCCC[C@H]4O)sc3c2)ccn1 (10 µM) | inactive: 0 | inactive: 0 | inactive: 0 | inactive: 0 | inactive: 0 | inactive: 0 | inactive: 0 | inactive: 0 | 0 | 0 | 0 | 0 | 0 | 0 | 0 | 0 | 0 | 0 | 0 | 0 |
| Nc1cccc(S(=O)(=O)N2CCCN(S(=O)(=O)c3ccc4c(c3)OCCO4)CC2)c1 (10 µM) | inactive: 0 | inactive: 0 | inactive: 0 | inactive: 0 | inactive: 0 | inactive: 0 | inactive: 0 | inactive: 0 | 0 | 0 | 0 | 0 | 0 | 0 | 0 | 0 | 0 | 0 | 0 | 0 |
| COc1ccc(CN2C3CC2CN(c2ccc(-c4cc(OCC(C)(C)O)cn5ncc(C#N)c45)cn2)C3)cn1 [Selpercatinib] (10 µM) | inactive: 0 | inactive: 0 | inactive: 0 | inactive: 0 | inactive: 0 | inactive: 0 | inactive: 0 | inactive: 0 | 0 | 0 | 0 | 0 | 0 | 0 | 0 | 0 | 0 | 0 | 0 | 0 |
| CNC(=O)c1ccc(-c2cnc3cnc(-c4ccccc4)cn23)cc1 (10 µM) | inactive: 0 | inactive: 0 | inactive: 0 | inactive: 0 | inactive: 0 | inactive: 0 | inactive: 0 | inactive: 0 | 0 | 0 | 0 | 0 | 0 | 0 | 0 | 0 | 0 | 0 | 0 | 0 |
| Nc1cc(C(F)(F)F)c(-c2nc(N3CCOCC3)nc(N3CCOCC3)n2)cn1 [Bimiralisib] (10 µM) | inactive: 0 | inactive: 0 | inactive: 0 | inactive: 0 | inactive: 0 | inactive: 0 | inactive: 0 | inactive: 0 | 4 | 0 | 0 | 0 | 4 | 3 | 0 | 3 | 1 | 0 | 4 | 0 |
| O=c1ccc2ccc(O)c(O)c2o1 [Daphnetin] (10 µM) | inactive: 0 | inactive: 0 | inactive: 0 | inactive: 0 | inactive: 0 | inactive: 0 | inactive: 0 | inactive: 0 | 0 | 0 | 0 | 0 | 0 | 0 | 0 | 0 | 0 | 0 | 0 | 0 |
| Cc1cc(Nc2cc(CN3CCOCC3)c3nc(C)c(Cc4ccc(Cl)cc4F)n3n2)n[nH]1 [Gandotinib] (2.5 µM) | inactive: 0 | inactive: 0 | inactive: 0 | inactive: 0 | inactive: 0 | inactive: 0 | inactive: 0 | inactive: 0 | 0 | 0 | 0 | 0 | 0 | 0 | 0 | 0 | 0 | 0 | 0 | 0 |
| O=C(CO)N1CCC(c2n[nH]c(-c3ccc(Cl)cc3)c2-c2ccncn2)CC1 (10 µM) | inactive: 0 | inactive: 0 | inactive: 0 | inactive: 0 | inactive: 0 | inactive: 0 | inactive: 0 | inactive: 0 | 0 | 0 | 0 | 0 | 0 | 0 | 0 | 0 | 0 | 0 | 0 | 0 |
| CN1CCN(CCCNc2ncc(Cl)c(-c3cc4c(C(=O)NC5CC5)cccc4s3)n2)CC1 (10 µM) | inactive: 0 | inactive: 0 | inactive: 0 | inactive: 0 | inactive: 0 | inactive: 0 | inactive: 0 | inactive: 0 | 0 | 0 | 0 | 0 | 0 | 0 | 0 | 0 | 0 | 0 | 0 | 0 |
| COc1ccc(CNc2nc(N(CCO)CCO)nc3c2ncn3C(C)C)cc1 (2.5 µM) | inactive: 0 | inactive: 0 | inactive: 0 | inactive: 0 | inactive: 0 | inactive: 0 | inactive: 0 | inactive: 0 | 0 | 0 | 0 | 0 | 0 | 0 | 0 | 0 | 0 | 0 | 0 | 0 |
| c1cc(-c2cnn3cc(-c4ccc(N5CCNCC5)cc4)cnc23)c2cccnc2c1 (2.5 µM) | inactive: 0 | inactive: 0 | inactive: 0 | inactive: 0 | inactive: 0 | inactive: 0 | inactive: 0 | inactive: 0 | 0 | 0 | 1 | 0 | 0 | 0 | 0 | 0 | 2 | 0 | 0 | 0 |
| COc1cnccc1Nc1nc(-c2nn(Cc3c(F)cc(OCCO)cc3F)c3ccccc23)ncc1OC (10 µM) | inactive: 0 | inactive: 0 | inactive: 0 | inactive: 0 | inactive: 0 | inactive: 0 | inactive: 0 | inactive: 0 | 0 | 0 | 0 | 0 | 0 | 0 | 0 | 0 | 0 | 0 | 0 | 0 |
| Cc1ccc(-c2nn(C(C)(C)CNC(=O)c3ccncc3)c3ncnc(N)c23)cc1 (2.5 µM) | inactive: 0 | inactive: 0 | inactive: 0 | inactive: 0 | inactive: 0 | inactive: 0 | inactive: 0 | inactive: 0 | 0 | 0 | 0 | 0 | 0 | 0 | 0 | 0 | 0 | 0 | 0 | 0 |
| CC1(COc2ccc3c(c2)ncn3-c2ccc3cccc(N4CCC(N)CC4)c3n2)COC1 [Crenolanib] (2.5 µM) | inactive: 0 | inactive: 0 | inactive: 0 | inactive: 0 | inactive: 0 | inactive: 0 | inactive: 0 | inactive: 0 | 0 | 0 | 0 | 0 | 0 | 0 | 0 | 0 | 1 | 0 | 2 | 0 |
| O=C1NC(=O)C(=Cc2ccc3c(c2)OCO3)S1 (10 µM) | inactive: 0 | inactive: 0 | inactive: 0 | inactive: 0 | inactive: 0 | inactive: 0 | inactive: 0 | inactive: 0 | 0 | 0 | 0 | 0 | 0 | 0 | 0 | 0 | 0 | 0 | 0 | 0 |
| C=CC(=O)N1CCC[C@@H](n2nc(C(=O)Nc3ccc(CC(=O)N(C)C)c(C)c3C)c3c(N)ncnc32)C1 (10 µM) | inactive: 0 | inactive: 0 | inactive: 0 | inactive: 0 | inactive: 0 | inactive: 0 | inactive: 0 | inactive: 0 | 0 | 0 | 0 | 0 | 0 | 0 | 0 | 0 | 0 | 0 | 0 | 0 |
| COc1c(O)cc2oc3cc(O)c(CC=C(C)C)c(O)c3c(=O)c2c1CCC(C)(C)O [Garcinone D] (2.5 µM) | inactive: 0 | inactive: 0 | inactive: 0 | inactive: 0 | inactive: 0 | inactive: 0 | inactive: 0 | inactive: 0 | 0 | 0 | 0 | 0 | 0 | 0 | 0 | 0 | 0 | 0 | 0 | 0 |
| CC(C)n1cnc2c(Nc3cccc(Cl)c3)nc(NCCO)nc21 (10 µM) | inactive: 0 | inactive: 0 | inactive: 0 | inactive: 0 | inactive: 0 | inactive: 0 | inactive: 0 | inactive: 0 | 0 | 0 | 0 | 0 | 0 | 0 | 0 | 0 | 0 | 0 | 0 | 0 |
| O=C1NC(=O)C(c2cn(-c3ccccc3)nc2-c2ccc(F)cc2)N1 (stereo not given) (10 µM) | inactive: 0 | inactive: 0 | inactive: 0 | inactive: 0 | inactive: 0 | inactive: 0 | inactive: 0 | inactive: 0 | 0 | 0 | 0 | 0 | 0 | 0 | 0 | 0 | 0 | 0 | 0 | 0 |
| CCn1nc(C2CCN(C(=O)CCO)CC2)nc1-c1cnc(N)c(-c2nnc(C(C)(C)C)o2)n1 (10 µM) | inactive: 0 | inactive: 0 | inactive: 0 | inactive: 0 | inactive: 0 | inactive: 0 | inactive: 0 | inactive: 0 | 0 | 0 | 0 | 0 | 0 | 0 | 0 | 0 | 0 | 0 | 0 | 0 |
| CN(C)c1nc2c(Br)c(Br)c(Br)c(Br)c2n1CC(=O)O (10 µM) | inactive: 0 | inactive: 0 | inactive: 0 | inactive: 0 | inactive: 0 | inactive: 0 | inactive: 0 | inactive: 0 | 0 | 0 | 0 | 0 | 0 | 0 | 0 | 0 | 0 | 0 | 0 | 0 |

Part of the list above in another layout:
Compound	kinase-Nluc reporter destabilization hit call [1]	kinase-Nluc reporter destabilization hit call [2]	kinase-Nluc reporter destabilization hit call [3]	kinase-Nluc reporter destabilization hit call [4]	kinase-Nluc reporter destabilization hit call [5]	kinase-Nluc reporter destabilization hit call [6]	kinase-Nluc reporter destabilization hit call [7]	kinase-Nluc reporter destabilization hit call [8]	number of time points [9]	number of time points [10]	number of time points [11]	number of time points [12]	number of time points [13]	number of time points [14]	number of time points [15]	number of time points [16]	number of time points [17]	number of time points [18]	number of time points [19]	number of time points [20]
Nc1cccc(S(=O)(=O)N2CCCN(S(=O)(=O)c3ccc4c(c3)OCCO4)CC2)c1 (10 µM)	inactive: 0	inactive: 0	inactive: 0	inactive: 0	inactive: 0	inactive: 0	inactive: 0	inactive: 0	0	0	0	0	0	0	0	0	0	0	0	0
COc1ccc(CN2C3CC2CN(c2ccc(-c4cc(OCC(C)(C)O)cn5ncc(C#N)c45)cn2)C3)cn1 [Selpercatinib] (10 µM)	inactive: 0	inactive: 0	inactive: 0	inactive: 0	inactive: 0	inactive: 0	inactive: 0	inactive: 0	0	0	0	0	0	0	0	0	0	0	0	0
